Assay results: patent US20190038759A1 (priority 2017, published 2019)
For some assays here: At least one structure is not confirmed: it was looked up by name or label, or the drawing left a doubt. Some entries share one result that the patent states for a list of compounds.

Assays:
[1] = system: intracellular pathogens in J774A.1 cells; type: cell-based
[2] = system: S. epidermidis ATCC 35984 biofilm; experiment: Disruption of established biofilms, crystal violet; type: cell-based; conditions: S. epidermidis mature biofilm, 64 μM
Protocol: The compounds of the present disclosure were examined for their ability to disrupt bacterial biofilms using the microtiter dish biofilm formation assay. Briefly, overnight cultures of S. aureus (ATCC 6538) and S. epidermidis (ATCC 35984) were diluted 1:100 in TSB supplemented with 1% glucose. Overnight cultures of P. aeruginosa PAO1 and A. baumannii ATCC BAA-1605 were diluted 1:100 in M63 minimal medium supplemented with magnesium sulfate, glucose and casamino acids. Bacterial suspensions were incubated in 96-well plates at 37° C. for 24 hours. After removing media, wells were rinsed with PBS to remove planktonic bacteria before re-filling wells with fresh media. Compounds were added at specific concentrations and plates were incubated at 37° C. for 24 hours. After incubation, wells were washed and biofilms were stained with 0.5% (w/v) crystal violet for 30 minutes. The dye was solubilized with ethanol (95%) and the biofilm mass was quantified at OD595. Experiments were done in triplicate and repeated twice independently.

Structure (SMILES) | clearance of intracellular bacteria [1] | disruption of biofilm mass [2]
NC[C@H]1O[C@H](O[C@H]2[C@H](O)[C@@H](O[C@H]3O[C@H](CO)[C@@H](O)[C@H](N)[C@H]3O)[C@H](N)C[C@@H]2N)[C@H](O)[C@@H](O)[C@@H]1O [kanamycin] | neither kanamycin nor P14LRR is capable of effectively clearing intracellular bacteria | 
CN[C@H](CC(C)C)C(=O)N[C@H]1C(=O)N[C@@H](CC(N)=O)C(=O)N[C@H]2C(=O)N[C@H]3C(=O)N[C@H](C(=O)N[C@H](C(=O)O)c4cc(O)cc(O)c4-c4cc3ccc4O)[C@H](O)c3ccc(c(Cl)c3)Oc3cc2cc(c3O[C@@H]2O[C@H](CO)[C@@H](O)[C@H](O)[C@H]2O[C@H]2C[C@](C)(N)[C@H](O)[C@H](C)O2)Oc2ccc(cc2Cl)[C@H]1O [vancomycin] |  | 25-30%
